No constants are given. Whether binding was seen depends on the method and setting. Binding can be weak; no strength is given. Sequences can lack the tags named with a protein.

The assay has as its target polyhistidine-tagged mEhQTRT1 (EhQTRT1 with the point mutation D267 to A267) (Entamoeba histolytica). The assay can be described thus: SEC; Ni-NTA-purified complex dialysed (25 mM HEPES pH 7.4, 300 mM NaCl, 2 mM DTT), then Superdex 200 increase 10/300 GL in 25 mM HEPES pH 7.3, 100 mM NaCl, 50 uM ZnSO4, 5% glycerol, 2 mM DTT; peak fractions on SDS-PAGE with silver staining, bands identified by mass spectrometry; both purified.

B1: EhQTRTD1 (Entamoeba histolytica queuine tRNA-ribosyltransferase domain-containing 1, subunit of EhTGT), untagged (protein, UniProt C4M2L1 1-380)
chain: MSTSTPQFQIISTTKVGSIPFVTIDNYEKYLKEVNTFLFCYRDLYEAQEFILKYGKGYKKYFMMPEQSHHILSMSLTEKIDDSCNKLTKAEFNITTRGGYRPLTIQQVINFSNQSGFDKIEGFCYSPLEKRKTSKKMKQQRQIVIKKLKEMIEEKTKKGLTIEIIASIGLTGLDDDIQYVKDIIQTGIHEIVFDCEYIEDKDKILDFIQNIKDLCNNIKMYVKLYSFNLSQIIQAALMNVSIWTNSINEFTLHGQAFVFPLSINQNNNITSIDLYNTCYKDVVNDVCVNGCECFSCKSNQSRAYIHHLLLCHELTGTTLLSLHNFHYIHKLEQLINSLLLNDRSKLQQLADFYNSLIPPPEFQKVKLYADHRTKENEDDD
With B1, the binding entry is recorded as “binds”.

Source of the values: publication PMC8092309.
